Among the data in patent US20240158500A1 (UCL BUSINESS, published 2024) are binding values, retold here.

These are yes or no findings as the source states them, for the method shown. Some entries that bind do so weakly or less than the wild type.

In experiment [1] the target is T1, CD160 transmembrane (TM) isoform, on engineered cells (UniProt O95971).
T1 sequence (looked up): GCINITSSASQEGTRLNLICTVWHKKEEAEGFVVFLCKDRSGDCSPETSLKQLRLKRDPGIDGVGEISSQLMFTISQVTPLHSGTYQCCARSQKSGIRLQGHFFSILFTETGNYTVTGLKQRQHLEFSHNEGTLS
As to the kind of experiment: staining of cells expressing the TM isoform of CD160 (FIG. 11).

For experiment [2], the target named is T2, purified CD160 (SPR analyte) (UniProt O95971).
T2 sequence (looked up): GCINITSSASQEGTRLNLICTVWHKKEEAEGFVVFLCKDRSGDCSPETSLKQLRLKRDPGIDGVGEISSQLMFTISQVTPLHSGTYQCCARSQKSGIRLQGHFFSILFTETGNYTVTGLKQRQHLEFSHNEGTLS
As to the kind of experiment: SPR (Biacore T200), scFv captured on a CM5 chip, CD160 injected at 3.70, 11.11, 33.33, 100 and 300 nM; no unit is printed on the time axis.

B1: anti-CD160 scFv clone 6 (SC14) (scFv)
scFv: EVQLVESGGGFVQPGRSLKLSCAASGFTFSNYAMAWVRQAPTKGLEWVASINSGGGDSYYRDSVKGRFTISRDNAKNTQYLQMDSLRSEDTATYYCATHNYGSTIFDYWGQGAMVTVSSGGGGSGGGGSGGGGSEIILTQSPTTMTASPGEKVTITCRASSSVSYMHWYQQKPGASPKPWIYETSKLASGVPDRFSGSGSGTSYSLTINNMEAEDAATYYCQQWNYPSMYTFGAGTKLELKR
notes: Rat scFv, VH-linker-VL
For B1, the binding result in experiment [1] and in experiment [2] was “binds” each time.

B2: anti-CD160 scFv clone 9 (PB6) (scFv)
scFv: EVQLVESGGGLVQPGRSLKLSCAASGFTFSNYAMAWVRQAPTKGLEWVASISSGGGDTYYRDSVKGRFTISRDNSKNTQYLQMDSLRSEDTATYYCATHNYESTVLITWGQGASVTVSSGGGGSGGGGSGGGGSEIVLTQSPTTTAASPGERVTITCRASSSVSYMHWYQQKPGASPKPWIYETSKLASGVPDRFSGSGSGTSYSLTINNMEAEDAATYYCQQWNYPSMYTFGAGTKLEIKR
notes: Rat scFv, VH-linker-VL
With B2, the binding entry in experiment [1] is “binds”.

B3: anti-CD160 scFv clone 3 (C83) (scFv)
scFv: QVNLQESGPGLVQPSETLSLTCTVSGFSLTSYGVYWVRQPPGKGLEWMGRIWNDGGTDYNPALKSRLSISRDTSKSQVFLKLNSLQTEDTAIYFCARGWTHWGQGTLVTVSSGGGGSGGGGSGGGGSDIQMTQSPASLSASLGETVSIECLASEDIYNNLAWYQQKPGKSPQLLIYYASSLQDGVPSRFSGSGSGTQYSLKINSLESEDVATYFCLQDSEYPPTFGGGTKLELKR
On to B3, for which the binding entry in experiment [1] and in experiment [2] was “binds” each time.

B4: anti-CD160 scFv clone 1 (C123) (scFv)
scFv: EVKLVESGGGLVQPGRSLKLSCAASGFIFSNYAMAWVRQAPTKGLEWVASVNSGGANTYYRDSVKGRFTISRDNAKNTQYLHIDSLRSEDTATYYCATHNYESTVFDYWGQGAMVTVSSGGGGSGGGGSSGGGGSEIVLTQSPTTMTASPGEKVTITCRASSSVSYMHWYQQKPGASPKPWIYETSKLASGVPDRFSGSGSGTSYSLTINNMEAEDAATYYCQQWNYPSMYTFGAGTKLELKR
notes: Rat scFv, VH-linker-VL
For the molecule B4, the binding result in experiment [1] and in experiment [2] was “binds” in each case.

B5: anti-CD160 scFv clone 5 (C10) (scFv)
scFv: QVQLKESGPGLVQPSETLSLTCTVSGFSLTNYGINWFRQPPGKGLEWMGTIWNDGGTDYNSALKSRLTISRDTSKSQVFLKMNSLQTEDTAIYFCARGMEAWGQGASVTVSSGGGGSGGGGSGGGGSDIQLTQSPSLLSASVGDRVTLSCKGSQNINNYLAWYQQKLGEAPKLLIYNTNSLQTGIPSRFSGSGSGTDYTLTISSLQPEDFATYFCLQHNSGYTFGAGTKLEIKR
notes: Rat scFv, VH-linker-VL; also called 010
As for B5, the binding result in experiment [1] and in experiment [2] was “binds” each time.

B6: anti-CD160 scFv clone 11 (PB10) (scFv)
scFv: EVQLVESGGGLVQPGRSLKLSCAASGFTFSNYGMAWVRQAPTKGLEWVASINTSGGSTYYRDSVKGRFTISRDNAKSTLYLQMDSLRSEDTATYYCATIYYHDGSYYYAGWFAYWGQGTLVTVSSGGGGSGGGGSGGGGSDIVLTQSPALAVSPGERVSISCRASESVSTLMHWYQQKLGQQPKLLIYGASNLESGVPARFSGSGSGTDFTLNIDPVEADDIATYFCQQSWNGPWTFGGGTKLELKR
notes: Rat scFv, VH-linker-VL
On to B6, for which the binding entry in experiment [1] is listed as “binds”.

B7: anti-CD160 scFv clone 8 (PB9) (scFv)
scFv: QVNLQESGPGLVQPSETLSLTCTVSGFSLTNYGINWFRQPPGKGLEWMGTIWNDGGTDYNSALKSRLSISRDTSKSQVFLKMNSLQTEDTAIYFCARGMDAWGQGASVTVSSGGGGSGGGGSGGGGSDIQMTQSPASLSASLGETVSIECLASEDIYNNLAWYQQKPGKSPQLLIYYANSLQDGVPSRFSGSGSGTQYSLKINSLQSEDVATYFCQQYNNYPFTFGSGTKLELKR
notes: Rat scFv, VH-linker-VL
As to B7, in experiment [1], the binding entry was “binds”.

B8: anti-CD160 scFv clone 2 (C25) (scFv)
scFv: EVQLVESGGDLVQPGRSLKLSCAASGFTFSNYGMAWVRQAPTKGLEWVASVSNGGGNTYYRDSVKGRFTISRDNAKNTQYLQMDSLRSEDTATYYCVTHNYESTVFDYWGQGAMVTVSSGGGGSGGGGSGGGGSEIVLTQSPTTMTASPGEKVTITCRASSSVSYMHWYQQKPGASPKPWIYETSKLASGVPDRFSGSGSGTSYSLTINNMEAEDAATYYCQQWNYPSMYTFGPGTKLELKR
Take B8: the binding result in experiment [1] and in experiment [2] was “binds” in each case.
